Drawing on paper PMC10754140, this text covers binding for 1 molecule.

No constants are given. Whether binding was seen depends on the method and setting. In cells and extracts the contact can be indirect. These calls come from enrichment with a bait or labelling near it, and not all partners need be listed.

The assay concerns the target T1, O‐GlcNAc transferase (OGT), endogenous (human (endogenous in MCF10A)) (UniProt O15294).
T1 sequence: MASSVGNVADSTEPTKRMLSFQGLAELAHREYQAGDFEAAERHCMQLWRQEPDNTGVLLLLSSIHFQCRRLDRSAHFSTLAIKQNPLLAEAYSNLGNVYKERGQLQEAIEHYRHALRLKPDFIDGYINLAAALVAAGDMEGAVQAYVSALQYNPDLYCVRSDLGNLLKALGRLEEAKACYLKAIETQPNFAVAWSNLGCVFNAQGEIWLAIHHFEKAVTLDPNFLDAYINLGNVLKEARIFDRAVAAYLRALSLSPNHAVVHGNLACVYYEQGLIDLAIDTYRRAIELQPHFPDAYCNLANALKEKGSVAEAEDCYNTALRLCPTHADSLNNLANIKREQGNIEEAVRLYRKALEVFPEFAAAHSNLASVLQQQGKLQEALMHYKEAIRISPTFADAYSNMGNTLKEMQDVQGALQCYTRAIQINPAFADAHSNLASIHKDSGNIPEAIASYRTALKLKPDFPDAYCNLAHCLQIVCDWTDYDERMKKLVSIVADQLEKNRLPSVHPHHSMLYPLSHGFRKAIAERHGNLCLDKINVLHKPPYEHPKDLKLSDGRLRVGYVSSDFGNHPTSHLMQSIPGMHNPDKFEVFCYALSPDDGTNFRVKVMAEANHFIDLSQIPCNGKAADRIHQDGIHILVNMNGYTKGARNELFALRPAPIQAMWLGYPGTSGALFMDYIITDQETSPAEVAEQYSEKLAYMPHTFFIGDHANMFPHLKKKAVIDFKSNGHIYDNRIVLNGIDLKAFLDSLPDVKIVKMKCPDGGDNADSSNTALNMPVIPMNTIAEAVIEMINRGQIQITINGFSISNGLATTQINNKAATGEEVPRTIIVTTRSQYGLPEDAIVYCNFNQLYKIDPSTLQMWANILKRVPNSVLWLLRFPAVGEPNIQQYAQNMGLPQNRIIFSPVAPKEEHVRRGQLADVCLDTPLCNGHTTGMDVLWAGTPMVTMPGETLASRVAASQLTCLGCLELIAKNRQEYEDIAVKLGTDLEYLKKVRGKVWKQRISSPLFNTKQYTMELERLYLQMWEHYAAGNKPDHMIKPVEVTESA
The experiment in a line: affinity purification with mass spectrometry; anti-OGT antibody used to immunoprecipitate endogenous OGT from MCF10A cell lysate; SDS-PAGE, Coomassie staining, tandem mass spectrometry.

B1: centrosomal protein 131 (CEP131), endogenous (protein, UniProt Q9UPN4 1-1083)
chain: MKGTRAIGSVPERSPAGVDLSLTGLPPPVSRRPGSAATTKPIVRSVSVVTGSEQKRKVLEATGPGGSQAINNLRRSNSTTQVSQPRSGSPRPTEPTDFLMLFEGSPSGKKRPASLSTAPSEKGATWNVLDDQPRGFTLPSNARSSSALDSPAGPRRKECTVALAPNFTANNRSNKGAVGNCVTTMVHNRYTPSERAPPLKSSNQTAPSLNNIIKAATCEGSESSGFGKLPKNVSSATHSARNNTGGSTGLPRRKEVTEEEAERFIHQVNQATVTIQRWYRHQVQRRGAGAARLEHLLQAKREEQRQRSGEGTLLDLHQQKEAARRKAREEKARQARRAAIQELQQKRALRAQKASTAERGPPENPRETRVPGMRQPAQELSPTPGGTAHQALKANNTGGGLPAAGPGDRCLPTSDSSPEPQQPPEDRTQDVLAQDAAGDNLEMMAPSRGSAKSRGPLEELLHTLQLLEKEPDVLPRPRTHHRGRYAWASEVTTEDDASSLTADNLEKFGKLSAFPEPPEDGTLLSEAKLQSIMSFLDEMEKSGQDQLDSQQEGWVPEAGPGPLELGSEVSTSVMRLKLEVEEKKQAMLLLQRALAQQRDLTARRVKETEKALSRQLQRQREHYEATIQRHLAFIDQLIEDKKVLSEKCEAVVAELKQEDQRCTERVAQAQAQHELEIKKLKELMSATEKARREKWISEKTKKIKEVTVRGLEPEIQKLIARHKQEVRRLKSLHEAELLQSDERASQRCLRQAEELREQLEREKEALGQQERERARQRFQQHLEQEQWALQQQRQRLYSEVAEERERLGQQAARQRAELEELRQQLEESSSALTRALRAEFEKGREEQERRHQMELNTLKQQLELERQAWEAGRTRKEEAWLLNREQELREEIRKGRDKEIELVIHRLEADMALAKEESEKAAESRIKRLRDKYEAELSELEQSERKLQERCSELKGQLGEAEGENLRLQGLVRQKERALEDAQAVNEQLSSERSNLAQVIRQEFEDRLAASEEETRQAKAELATLQARQQLELEEVHRRVKTALARKEEAVSSLRTQHEAAVKRADHLEELLEQHRRPTPSTK
In the case of B1, the binding result is recorded as “binds”.
